Experimental data as given in publication PMC5701254.
No constants are given. Whether binding was seen depends on the method and setting. Some entries that bind do so weakly or less than the wild type.

Biological target: endogenous LAMP2A (lysosome-associated membrane protein 2 A) (mouse (endogenous in SN4741)) (UniProt P17047)
Assay: native gel or EMSA; lysosomes or lysosomal membrane purified from SN4741 cells (untreated, Tg, Tg with SB203580, 6-OHDA, PERK inhibitor GSK2606414); continuous native PAGE, 6% polyacrylamide, no SDS, no boiling, non-reducing loading buffer; immunoblot for LAMP2A

B1: endogenous LAMP2A (lysosome-associated membrane protein 2 A) (receptor, UniProt P17047-1 26-415)
chain: LIVNLTDSKGTCLYAEWEMNFTITYETTNQTNKTITIAVPDKATHDGSSCGDDRNSAKIMIQFGFAVSWAVNFTKEASHYSIHDIVLSYNTSDSTVFPGAVAKGVHTVKNPENFKVPLDVIFKCNSVLTYNLTPVVQKYWGIHLQAFVQNGTVSKNEQVCEEDQTPTTVAPIIHTTAPSTTTTLTPTSTPTPTPTPTPTVGNYSIRNGNTTCLLATMGLQLNITEEKVPFIFNINPATTNFTGSCQPQSAQLRLNNSQIKYLDFIFAVKNEKRFYLKEVNVYMYLANGSAFNISNKNLSFWDAPLGSSYMCNKEQVLSVSRAFQINTFNLKVQPFNVTKGQYSTAQDCSADEDNFLVPIAVGAALGGVLILVLLAYFIGLKRHHTGYEQF
binding: binds
